The target of the experiment is T1, decorin (mouse (endogenous in NOR-10)) (UniProt P28654).
T1 sequence: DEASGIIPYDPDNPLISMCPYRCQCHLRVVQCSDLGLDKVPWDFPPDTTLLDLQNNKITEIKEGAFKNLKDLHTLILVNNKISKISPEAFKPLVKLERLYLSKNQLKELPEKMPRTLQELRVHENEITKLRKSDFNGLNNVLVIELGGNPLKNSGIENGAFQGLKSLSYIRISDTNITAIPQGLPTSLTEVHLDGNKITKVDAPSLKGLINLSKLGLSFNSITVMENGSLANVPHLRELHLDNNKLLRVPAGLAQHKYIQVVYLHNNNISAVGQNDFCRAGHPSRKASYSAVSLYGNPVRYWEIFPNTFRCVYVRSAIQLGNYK
Nature of the experiment: co-IP; lysate of NOR-10 cells (1 mg total protein) with 3 μg anti-decorin overnight at 4°C, Protein A/G magnetic beads, Western blotting with anti-ITGB1; input as positive control. For orientation: In western blotting, separated proteins are transferred to a membrane and probed.

Sequences of proteins named here, by UniProt entry; tags and fusion partners are left off. Residues count along the entry.
UniProt P09055, residues 21-798: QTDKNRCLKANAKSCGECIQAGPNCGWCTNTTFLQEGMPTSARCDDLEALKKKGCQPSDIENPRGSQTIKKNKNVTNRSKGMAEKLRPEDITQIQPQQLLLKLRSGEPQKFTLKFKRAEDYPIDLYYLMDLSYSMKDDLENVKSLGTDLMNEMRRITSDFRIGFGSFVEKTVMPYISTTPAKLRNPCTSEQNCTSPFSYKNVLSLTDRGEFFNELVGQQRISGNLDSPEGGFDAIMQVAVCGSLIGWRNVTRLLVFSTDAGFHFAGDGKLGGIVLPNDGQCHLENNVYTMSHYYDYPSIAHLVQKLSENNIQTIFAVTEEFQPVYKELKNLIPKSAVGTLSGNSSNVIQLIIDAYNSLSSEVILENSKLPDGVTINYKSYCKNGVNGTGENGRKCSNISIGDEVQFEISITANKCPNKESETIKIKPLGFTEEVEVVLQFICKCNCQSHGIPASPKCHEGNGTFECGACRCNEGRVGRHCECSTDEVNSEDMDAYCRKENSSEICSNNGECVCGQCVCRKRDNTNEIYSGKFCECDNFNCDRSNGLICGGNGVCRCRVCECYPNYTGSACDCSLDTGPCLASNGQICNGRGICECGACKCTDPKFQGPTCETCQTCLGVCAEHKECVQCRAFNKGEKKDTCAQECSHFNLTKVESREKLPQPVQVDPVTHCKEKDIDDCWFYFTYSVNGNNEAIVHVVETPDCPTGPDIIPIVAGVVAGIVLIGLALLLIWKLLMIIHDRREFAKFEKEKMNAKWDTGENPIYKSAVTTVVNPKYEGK

No constants are given. Whether binding was seen depends on the method and setting. In cells and extracts the contact can be indirect. Some entries that bind do so weakly or less than the wild type.

As for “integrin β1 (from UniProt P09055 21-798) (receptor)”, the binding result was “binds”.
